# Reference: patent US7279474B2, “Substituted pyrrolo[2,3-d]pyrimidines as antagonists of the corticotropin releasing factor (CRF)” (Glaxo Group Limited, priority 2001, dated 2007)
# Some results were stated once for a whole list of compounds, not compound by compound.
# Molecular target: T1, recombinant human CRF receptors (Homo sapiens, UniProt P34998)
# T1 sequence (P34998 24-415): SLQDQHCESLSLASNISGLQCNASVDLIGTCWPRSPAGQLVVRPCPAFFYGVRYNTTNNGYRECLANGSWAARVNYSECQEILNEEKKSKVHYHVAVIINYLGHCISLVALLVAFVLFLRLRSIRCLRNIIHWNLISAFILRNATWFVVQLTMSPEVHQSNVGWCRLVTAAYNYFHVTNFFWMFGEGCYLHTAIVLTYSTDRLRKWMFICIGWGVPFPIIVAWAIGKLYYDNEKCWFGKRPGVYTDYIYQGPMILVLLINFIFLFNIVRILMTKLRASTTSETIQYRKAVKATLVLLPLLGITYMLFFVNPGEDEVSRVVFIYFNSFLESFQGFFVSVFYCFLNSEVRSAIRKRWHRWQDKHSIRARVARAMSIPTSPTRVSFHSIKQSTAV
# Test: CRF receptors-binding assay by scintillation proximity (SPA)
# Settings: CRF receptor binding affinity, methods of Example 5; receptor subtype (CRF1 or CRF2) not stated
compound,measurement,value
"Cc1nc2c(c(N3[C@H](C)CC[C@H]3C)n1)CCC2c1ccc(Cl)cc1Cl (single isomer, unassigned) [Compound 2-5-1]",Ki,< 100 nM
"Cc1nc2c(c(N3[C@H](C)CC[C@H]3C)n1)CCC2c1ccc(Cl)cc1Cl (single isomer, unassigned) [Compound 2-5-2]",Ki,< 1000 nM
"CCC(CC)Nc1nc(C)nc2c1CCN2c1ccc(Cl)cc1Cl [Compound 1-1-1, [7-(2,4-Dichlorophenyl)-2-methyl-6,7-dihydro-5H-pyrrolo[2,3-d]pyrimidin-4-yl]-(1-ethyl-propyl)amine]",Ki,< 100 nM
"CCC(CC)Nc1nc(C)nc2c1CCN2c1ccc(C(C)C)cc1Br [Compound 1-1-2, [7-(2-Bromo-4-isopropylphenyl)-2-methyl-6,7-dihydro-5H-pyrrolo[2,3-d]pyrimidin-4-yl]-(1-ethylpropyl)amine]",Ki,< 100 nM
"CCCC(CCC)Nc1nc(C)nc2c1CCN2c1ccc(C(F)(F)F)cc1C(F)(F)F [Compound 1-1-3, [7-(2,4-Bis-trifluoromethylphenyl)-2-methyl-6,7-dihydro-5H-pyrrolo[2,3-d]pyrimidin-4-yl]-(1-propylbutyl)amine]",Ki,< 100 nM
"CCCCNCCc1nc(C)nc2c1CCN2c1ccc(Cl)cc1Cl [Compound 1-2-1, Butyl-[7-(2,4-dichlorophenyl)-2-methyl-6,7-dihydro-5H-pyrrolo[2,3-d]pyrimidin-4-yl]ethyl-amine]",Ki,< 100 nM
"CCCCN(CC)c1nc(C)nc2c1CCN2c1ccc(C(C)C)cc1Br [Compound 1-2-2, [7-(2-Bromo-4-isopropylphenyl)-2-methyl-6,7-dihydro-5H-pyrrolo[2,3-d]pyrimidin-4-yl]-butylethylamine]",Ki,< 100 nM
"CCCCNCCc1nc(C)nc2c1CCN2c1ccc(C(F)(F)F)cc1Cl [Compound 1-2-3, Butyl-[7-(2-chloro-4-trifluoromethylphenyl)-2-methyl-6,7-dihydro-5H-pyrrolo[2,3-d]pyrimidin-4-yl]ethylamine]",Ki,< 100 nM
"CCCCN(CC)c1nc(C)nc2c1CCN2c1ccc(C(F)(F)F)cc1C(F)(F)F [Compound 1-2-4, [7-(2,4-Bis-trifluoromethylphenyl)-2-methyl-6,7-dihydro-5H-pyrrolo[2,3-d]pyrimidin-4-yl]-butylethylamine]",Ki,< 100 nM
"CCCN(CC1CC1)c1nc(C)nc2c1CCN2c1ccc(C(F)(F)F)cc1Cl [Compound 1-4-1, [7-(2-Chloro-4-trifluoromethyl-phenyl)-2-methyl-6,7-dihydro-5H-pyrrolo[2,3-d]pyrimidin-4-yl]cyclopropylmethylpropylamine]",Ki,< 100 nM
"CCCN(CC1CC1)c1nc(C)nc2c1CCN2c1ccc(C(F)(F)F)cc1C(F)(F)F [Compound 1-4-2, [7-(2,4-Bis-trifluoromethylphenyl)-2-methyl-6,7-dihydro-5H-pyrrolo[2,3-d]pyrimidin-4-yl]-cyclopropylmethylpropylamine]",Ki,< 100 nM
"Cc1nc(CCCNCC2CC2)c2c(n1)N(c1ccc(Cl)cc1Cl)CC2 [Compound 1-4-4, Cyclopropylmethyl-[7-(2,4-dichlorophenyl)-2-methyl-6,7-dihydro-5H-pyrrolo[2,3-d]pyrimidin-4-yl]propylamine]",Ki,< 100 nM
"CCC1CCCCN1c1nc(C)nc2c1CCN2c1ccc(Cl)cc1Cl (stereo not drawn) [Compound 1-6-3, 7-(2,4-Dichlorophenyl)-4-(2-ethylpiperidin-1-yl)-2-methyl-6,7-dihydro-5H-pyrrolo[2,3-d]pyrimidine]",Ki,< 100 nM
"Cc1nc2c(c(N3[C@H](C)CC[C@H]3C)n1)CCN2c1ccc(Cl)cc1Cl [Compound 1-7-3, 7-(2,4-Dichlorophenyl)-4-[(2R, 5R)-2,5-dimethylpyrrolidin-1-yl]-2-methyl-6,7-dihydro-5H-pyrrolo[2,3-d]pyrimidine]",Ki,< 100 nM
"Cc1nc2c(c(-n3ccc(-c4nccs4)n3)n1)CCN2c1ccc(Cl)cc1Cl [Compound 1-10-1, 7-(2,4-dichlorophenyl)-2-methyl-4-(3-thiazol-2-yl-pyrazol-1-yl)-6,7-dihydro-5H-pyrrolo[2,3-d]pyrimidine]",Ki,< 100 nM
"Cc1nc2c(c(-n3ccc(-c4nccs4)n3)n1)CCN2c1ccc(C(F)(F)F)cc1C(F)(F)F [Compound 1-10-2, 7-(2,4-bis-trifluoromethyl-phenyl)-2-methyl-4-(3-Thiazol-2-yl-pyrazol-1-yl)-6,7-dihydro-5H-pyrrolo[2,3-d]pyrimidine]",Ki,< 100 nM
"Cc1nc2c(c(-n3ccc(C(F)(F)F)n3)n1)CCN2c1ccc(C(C)C)cc1Br [Compound 1-10-6, 7-(2-Bromo-4-isopropylphenyl)-2-methyl-4-(3-trifluoromethylpyrazol-1-yl)-6,7-dihydro-5H-pyrrolo[2,3-d]4-pyrimidine]",Ki,< 100 nM
"CCc1cc(C(F)(F)F)n(-c2nc(C)nc3c2CCN3c2ccc(Cl)cc2Cl)n1 [Compound 1-10-9, 7-(2,4-dichlorophenyl)4-(3-ethyl-5-trifluoromethylpyrazol-1-yl)-2-methyl-6,7-dihydro-5-H-pyrrolo[2,3-d]pyrimidine]",Ki,< 1000 nM
"COC(OC)c1ccn(-c2nc(C)nc3c2CCN3c2ccc(Cl)cc2Cl)n1 [Compound 1-10-15, 7-(2,4-Dichlorophenyl)-4-(3-dimethoxymethylpyrazol-1-yl)-2-methyl-6,7-dihydro-5H-pyrrolo[2,3-d]pyrimidine]",Ki,< 100 nM
"Cc1nc2c(c(-n3cc(Br)c(C)n3)n1)CCN2c1ccc(Cl)cc1Cl [Compound 1-10-18, 4-(4-Bromo-3-methylpyrazol-1-yl)-7-(2,4-dichlorophenyl)-2-methyl-6,7-dihydro-5H-pyrrolo[2,3-d]pyrimidine]",Ki,< 100 nM
"Cc1nc2c(c(-n3cc(Br)cn3)n1)CCN2c1ccc(Cl)cc1Cl [Compound 1-10-19, 4-(4-Bromo-pyrazol-1-yl)-7-(2,4-Dichlorophenyl)-2-methyl-6,7-dihydro-5H-pyrrolo[2,3-d]pyrimidine]",Ki,< 1000 nM
"Cc1nc2c(c(-n3ccc(-c4ccc(Cl)cc4)n3)n1)CCN2c1ccc(Cl)cc1Cl [Compound 1-10-23, 7-(2,4-Dichlorophenyl)-4-[3-(4-chlorophenyl)pyrazol-1-yl]-2-methyl-6,7-dihydro-5H-pyrrolo[2,3d]-pyrimidine]",Ki,< 1000 nM
"Cc1nc2c(c(-n3ccc(-c4ccccc4[N+](=O)[O-])n3)n1)CCN2c1ccc(Cl)cc1Cl [Compound 1-10-24, 7-(2,4-dichlorophenyl)-4-[3-(2-nitrophenyl)-pyrazol-1-yl]-2-methyl-6,7-dihydro-5H-pyrrolo[2,3-d]pyrimidine]",Ki,< 1000 nM
"COc1ccc(N2CCc3c2nc(C)nc3-n2ccc(-c3nccs3)n2)c(OC)n1 [Compound 1-10-30, 7-(2,6-dimethoxy-pyridin-3-yl)-2-methyl-4-(3-thiazol-2-yl-pyrazol-1-yl)-6,7-dihydro-5H-pyrrolo[(2,3-d)]pyrimidine]",Ki,< 100 nM
"Cc1nc2c(c(-n3ccc(-c4cccnc4)n3)n1)CCN2c1ccc(C(F)(F)F)cc1C(F)(F)F [Compound 1-10-32, 7-(2,4-bis-trifluoromethyl-phenyl)-2-methyl-4-(3-pyridin-3-yl-pyrazol-1-yl)-6,7-dihydro-5H-pyrrolo[(2,3-d)]pyrimidine]",Ki,< 1000 nM
"Cc1nc2c(c(-n3ccc(-c4cnccn4)n3)n1)CCN2c1ccc(C(F)(F)F)cc1C(F)(F)F [Compound 1-10-33, 7-(2,4-bis-trifluoromethyl-phenyl)-2-methyl-4-(3-pyrazin-2-yl-pyrazol-1-yl)-6,7-dihydro-5H-pyrrolo[(2,3-d)]pyrimidine]",Ki,< 1000 nM
"Cc1nc2c(c(-n3ccc(-c4cnco4)n3)n1)CCN2c1ccc(C(F)(F)F)cc1C(F)(F)F [Compound 1-10-40, 7-(2,4-bis-trifluoromethyl-phenyl)-2-methyl-4-(3-oxalol-5-yl-pyrazol-1-yl)-6,7-dihydro-5H-pyrrolo[(2,3-d)]pyrimidine]",Ki,< 1000 nM
"Cc1nc2c(c(-n3cnc(C(F)(F)F)n3)n1)CCN2c1ccc(Cl)cc1Cl [Compound 1-11-2, 7-(2,4-Dichlorophenyl-2-methyl-4-(3-trifluoromethyl(1,2,4)triazol-1-yl)-6,7-dihydro-5H-pyrrolo-2,3-d)pyrimidine]",Ki,< 1000 nM
"CCCCN(CC)c1nc(C)nc2c1CCC2c1ccc(Cl)cc1Cl (stereo not drawn) [Compound 2-2-5, Butyl-[7-(2,4-dichlorophenyl)-2-methyl-6,7-dihydro-5H-cyclopentapyrimidin-4-yl]-ethyl-amine]",Ki,< 1000 nM
"CCCN(CC1CC1)c1nc(C)nc2c1CCC2c1ccc(OC)cc1OC (stereo not drawn) [Compound 2-3-5, Cyclopropylmethyl-[7-(2,4-dimethoxy-phenyl)-2-methyl-6,7-dihydro-5H-cyclopentapyrimidin-4-yl]-propyl-amine]",Ki,< 1000 nM
"CCCN(CC1CC1)c1nc(C)nc2c1CCC2c1ccc(Cl)cc1Cl (stereo not drawn) [Compound 2-3-6, Cyclopropylmethyl-[7-(2,4-dichlorophenyl)-2-methyl-6,7-dihydro-5H-cyclopentapyrimidin-4-yl]-propyl-amine]",Ki,< 1000 nM
"CCCC(CCC)Nc1nc(C)nc2c1CCCN2c1ccc(C(F)(F)F)cc1C(F)(F)F [Compound 3-1-1, [8-(2,4-Bis-trifluoromethylphenyl)-2-methyl-5,6,7,8-tetrahydro-pyrido[2,3-d]pyrimidin-4-yl]-(1-propyl-butyl)amine]",Ki,< 100 nM
Cc1nc2c(c(-n3ccc(C(F)(F)F)n3)n1)CCCN2c1ccc(C(F)(F)F)cc1C(F)(F)F [Compound 3-2-1],Ki,< 100 nM
